Measurements from publication PMC11617872.
Results are given in words; binding and its absence hold for the method and conditions named. Binding seen in cells or lysates may run through a third protein. These calls come from enrichment with a bait or labelling near it, and not all partners need be listed.

Protein sequences, listed by entry. Tags and fused reporters are not part of them.
UniProt P25054: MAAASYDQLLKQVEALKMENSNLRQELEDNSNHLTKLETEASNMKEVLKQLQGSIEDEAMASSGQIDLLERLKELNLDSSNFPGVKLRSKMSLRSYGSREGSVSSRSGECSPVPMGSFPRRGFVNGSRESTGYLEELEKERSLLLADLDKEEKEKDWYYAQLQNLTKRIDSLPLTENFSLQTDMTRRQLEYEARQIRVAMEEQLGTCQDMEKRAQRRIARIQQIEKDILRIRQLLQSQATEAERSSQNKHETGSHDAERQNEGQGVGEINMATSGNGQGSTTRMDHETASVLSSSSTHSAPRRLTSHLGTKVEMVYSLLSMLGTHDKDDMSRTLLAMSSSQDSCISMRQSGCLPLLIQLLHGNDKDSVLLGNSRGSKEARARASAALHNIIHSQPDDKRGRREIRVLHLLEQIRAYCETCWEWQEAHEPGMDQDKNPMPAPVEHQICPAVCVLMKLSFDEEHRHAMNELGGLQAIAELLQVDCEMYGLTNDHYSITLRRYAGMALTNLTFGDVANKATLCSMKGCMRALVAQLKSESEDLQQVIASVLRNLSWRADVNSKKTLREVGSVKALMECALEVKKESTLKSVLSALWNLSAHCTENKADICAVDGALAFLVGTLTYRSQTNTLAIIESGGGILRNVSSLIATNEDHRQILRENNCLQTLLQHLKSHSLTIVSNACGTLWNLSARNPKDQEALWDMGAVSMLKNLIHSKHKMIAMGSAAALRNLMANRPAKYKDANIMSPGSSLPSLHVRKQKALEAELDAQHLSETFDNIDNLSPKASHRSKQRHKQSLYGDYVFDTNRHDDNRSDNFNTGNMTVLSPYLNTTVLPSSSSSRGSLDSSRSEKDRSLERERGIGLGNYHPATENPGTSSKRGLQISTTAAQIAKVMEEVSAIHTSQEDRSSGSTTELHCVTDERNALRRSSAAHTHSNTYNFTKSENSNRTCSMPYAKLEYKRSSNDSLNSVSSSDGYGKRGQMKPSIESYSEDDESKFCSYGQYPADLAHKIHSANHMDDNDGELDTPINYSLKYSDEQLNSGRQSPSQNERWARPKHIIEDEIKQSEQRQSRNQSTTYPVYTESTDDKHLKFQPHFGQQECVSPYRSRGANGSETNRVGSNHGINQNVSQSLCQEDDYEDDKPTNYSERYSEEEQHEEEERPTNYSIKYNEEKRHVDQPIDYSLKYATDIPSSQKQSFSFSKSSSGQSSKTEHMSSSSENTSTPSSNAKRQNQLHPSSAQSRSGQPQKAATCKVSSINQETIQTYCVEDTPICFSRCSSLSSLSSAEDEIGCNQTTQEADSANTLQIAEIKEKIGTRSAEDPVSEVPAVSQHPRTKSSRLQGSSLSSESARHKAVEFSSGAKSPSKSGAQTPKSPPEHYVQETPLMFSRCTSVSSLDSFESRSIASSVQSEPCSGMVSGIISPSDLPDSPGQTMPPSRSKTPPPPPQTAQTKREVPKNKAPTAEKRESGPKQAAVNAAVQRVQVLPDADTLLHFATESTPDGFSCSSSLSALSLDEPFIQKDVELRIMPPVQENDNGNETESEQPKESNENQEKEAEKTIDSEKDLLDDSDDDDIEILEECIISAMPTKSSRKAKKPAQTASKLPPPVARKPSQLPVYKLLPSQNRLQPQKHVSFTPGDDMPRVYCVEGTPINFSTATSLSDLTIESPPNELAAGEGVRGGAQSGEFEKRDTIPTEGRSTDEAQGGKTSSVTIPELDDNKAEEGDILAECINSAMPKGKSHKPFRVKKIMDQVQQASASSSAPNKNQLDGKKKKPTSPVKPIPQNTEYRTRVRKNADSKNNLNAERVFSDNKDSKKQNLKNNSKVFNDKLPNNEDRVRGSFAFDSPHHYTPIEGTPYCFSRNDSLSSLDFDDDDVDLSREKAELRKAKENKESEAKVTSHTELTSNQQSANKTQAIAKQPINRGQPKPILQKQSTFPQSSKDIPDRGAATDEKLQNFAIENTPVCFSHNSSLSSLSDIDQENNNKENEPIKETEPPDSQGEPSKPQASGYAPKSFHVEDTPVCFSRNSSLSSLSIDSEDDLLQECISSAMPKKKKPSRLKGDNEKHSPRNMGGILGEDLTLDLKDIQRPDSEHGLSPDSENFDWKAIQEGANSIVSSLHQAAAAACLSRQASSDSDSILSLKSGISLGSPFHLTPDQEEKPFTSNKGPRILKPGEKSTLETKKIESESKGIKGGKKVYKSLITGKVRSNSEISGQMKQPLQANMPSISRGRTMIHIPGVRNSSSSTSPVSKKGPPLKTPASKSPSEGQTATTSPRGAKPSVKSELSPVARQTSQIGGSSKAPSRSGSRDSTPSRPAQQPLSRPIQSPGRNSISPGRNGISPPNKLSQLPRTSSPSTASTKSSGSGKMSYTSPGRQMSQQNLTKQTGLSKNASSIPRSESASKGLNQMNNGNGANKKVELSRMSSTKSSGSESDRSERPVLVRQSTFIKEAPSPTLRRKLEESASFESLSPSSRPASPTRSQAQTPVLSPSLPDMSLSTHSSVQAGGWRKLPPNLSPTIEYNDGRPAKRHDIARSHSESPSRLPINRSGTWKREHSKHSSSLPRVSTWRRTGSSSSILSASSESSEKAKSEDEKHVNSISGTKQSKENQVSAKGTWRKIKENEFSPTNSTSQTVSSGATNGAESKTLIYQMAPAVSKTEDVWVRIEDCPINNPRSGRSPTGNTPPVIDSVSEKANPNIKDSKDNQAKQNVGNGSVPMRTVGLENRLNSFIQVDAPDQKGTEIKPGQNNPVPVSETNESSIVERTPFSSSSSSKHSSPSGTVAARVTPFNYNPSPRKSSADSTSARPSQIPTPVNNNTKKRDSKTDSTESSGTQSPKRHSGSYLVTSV
UniProt O00139: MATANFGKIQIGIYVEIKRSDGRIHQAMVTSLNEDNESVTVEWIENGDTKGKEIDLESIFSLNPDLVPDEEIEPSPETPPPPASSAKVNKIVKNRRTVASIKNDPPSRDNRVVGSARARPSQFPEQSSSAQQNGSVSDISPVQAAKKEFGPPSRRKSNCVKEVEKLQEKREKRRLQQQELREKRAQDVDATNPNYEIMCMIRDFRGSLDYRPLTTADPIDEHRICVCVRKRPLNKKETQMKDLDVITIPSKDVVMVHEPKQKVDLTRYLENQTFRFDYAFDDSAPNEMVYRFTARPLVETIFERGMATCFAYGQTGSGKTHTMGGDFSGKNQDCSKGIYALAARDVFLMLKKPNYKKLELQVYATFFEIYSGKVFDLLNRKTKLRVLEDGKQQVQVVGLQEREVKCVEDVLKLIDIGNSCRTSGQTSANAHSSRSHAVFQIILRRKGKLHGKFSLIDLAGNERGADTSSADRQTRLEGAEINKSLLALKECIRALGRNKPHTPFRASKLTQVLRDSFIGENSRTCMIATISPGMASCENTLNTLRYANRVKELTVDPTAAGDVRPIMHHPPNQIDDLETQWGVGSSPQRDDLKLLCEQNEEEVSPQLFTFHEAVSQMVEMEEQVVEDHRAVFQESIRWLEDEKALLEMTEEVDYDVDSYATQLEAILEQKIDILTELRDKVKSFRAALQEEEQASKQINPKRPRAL

Biological target: Bio-GFP-tagged APC full length (human) (UniProt P25054)
Assay: affinity purification with mass spectrometry; streptavidin beads (Dynabeads M-280) pull-down of Bio-GFP-APC full length co-expressed with BirA from HEK293T extracts; SDS-PAGE lane analysed by mass spectrometry

KIF2A (endogenous, found in the APC pull-down) (from UniProt O00139 1-706)
binding: binds
